Laboratory results as given in paper PMC3937775.
No constants are given. Whether binding was seen depends on the method and setting. Binding seen in cells or lysates may run through a third protein. Some binding calls cover weakened binding; strength is not graded here. For some assays here: Where a sequence is shown, tags or fusion partners need not be part of it.

Legend:
FLAG–ELL (human), P55199 = target: T1, FLAG–ELL (human), P55199; assay: co-IP; anti-FLAG immunoprecipitation from total lysate of HEK293 cells 24 hours after transfection with FLAG–ELL and HA–USPL1; lysis buffer 50 mM Tris-HCl pH 7.5, 150 mM NaCl, 1% NP40, 5 mM EDTA, 5 mM EGTA, 1 mM DTT; 3 hours; immunoblot with anti-HA and anti-FLAG; details: remark: other sources report otherwise
T1 chain: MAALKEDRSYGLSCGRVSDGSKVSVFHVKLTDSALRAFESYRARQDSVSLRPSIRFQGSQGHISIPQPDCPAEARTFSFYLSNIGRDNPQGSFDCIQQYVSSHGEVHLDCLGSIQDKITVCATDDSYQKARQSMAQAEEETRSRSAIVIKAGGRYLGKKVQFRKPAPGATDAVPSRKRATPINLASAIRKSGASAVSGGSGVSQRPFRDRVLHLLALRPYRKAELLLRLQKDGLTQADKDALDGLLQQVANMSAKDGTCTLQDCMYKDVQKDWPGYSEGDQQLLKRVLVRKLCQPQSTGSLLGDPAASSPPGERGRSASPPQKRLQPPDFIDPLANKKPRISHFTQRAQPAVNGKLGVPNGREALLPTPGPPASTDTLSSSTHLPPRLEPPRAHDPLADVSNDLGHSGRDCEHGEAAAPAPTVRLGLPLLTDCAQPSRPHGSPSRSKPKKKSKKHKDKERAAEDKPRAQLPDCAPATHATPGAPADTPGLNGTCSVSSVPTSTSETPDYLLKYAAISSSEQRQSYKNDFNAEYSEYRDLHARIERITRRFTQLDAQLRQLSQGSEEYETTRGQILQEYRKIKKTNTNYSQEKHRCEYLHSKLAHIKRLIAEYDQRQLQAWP

[1] = target: T2, endogenous USPL1 (human (endogenous in HEK293 and HeLa)), Q5W0Q7; assay: co-IP; anti-USPL1 immunoprecipitation of endogenous USPL1 from total lysate of HEK293 or HeLa cells; lysis buffer 50 mM Tris-HCl pH 7.5, 150 mM NaCl, 1% NP40, 5 mM EDTA, 5 mM EGTA, 1 mM DTT; empty Protein-G-agarose beads as control; immunoblot with ELL antibody; details: remark: other sources report otherwise
T2 chain: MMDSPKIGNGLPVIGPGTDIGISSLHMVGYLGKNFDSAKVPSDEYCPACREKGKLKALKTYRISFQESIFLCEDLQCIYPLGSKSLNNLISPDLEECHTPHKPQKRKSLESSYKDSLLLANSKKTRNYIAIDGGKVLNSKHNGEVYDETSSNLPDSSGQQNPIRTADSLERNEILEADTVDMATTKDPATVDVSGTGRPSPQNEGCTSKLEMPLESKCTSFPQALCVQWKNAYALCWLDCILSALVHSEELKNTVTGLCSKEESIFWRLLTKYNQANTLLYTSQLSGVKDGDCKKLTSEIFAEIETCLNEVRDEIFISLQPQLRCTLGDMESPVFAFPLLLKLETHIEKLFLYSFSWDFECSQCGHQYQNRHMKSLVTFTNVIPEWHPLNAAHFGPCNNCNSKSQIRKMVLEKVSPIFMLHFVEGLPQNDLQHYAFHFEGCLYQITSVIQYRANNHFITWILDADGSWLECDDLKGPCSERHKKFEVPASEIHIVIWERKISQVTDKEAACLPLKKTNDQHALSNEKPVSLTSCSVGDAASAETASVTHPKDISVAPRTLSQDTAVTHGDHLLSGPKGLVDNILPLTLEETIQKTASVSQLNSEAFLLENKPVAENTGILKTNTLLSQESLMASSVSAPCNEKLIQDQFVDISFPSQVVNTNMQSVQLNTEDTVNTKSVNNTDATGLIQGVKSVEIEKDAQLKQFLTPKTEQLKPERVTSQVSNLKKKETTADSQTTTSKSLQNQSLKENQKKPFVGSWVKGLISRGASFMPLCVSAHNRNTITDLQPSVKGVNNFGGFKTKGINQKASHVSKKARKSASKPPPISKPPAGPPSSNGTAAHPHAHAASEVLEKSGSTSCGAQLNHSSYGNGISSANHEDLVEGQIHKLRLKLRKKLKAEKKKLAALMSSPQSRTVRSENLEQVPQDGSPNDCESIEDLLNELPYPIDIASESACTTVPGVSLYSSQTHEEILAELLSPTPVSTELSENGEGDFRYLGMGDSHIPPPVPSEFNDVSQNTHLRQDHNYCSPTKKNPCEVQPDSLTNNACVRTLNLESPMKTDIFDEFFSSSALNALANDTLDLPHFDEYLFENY

B1: HA–USPL1, Q5W0Q7 1-1092 (protein)
chain: T2 chain
Q: For B1, which binding (FLAG–ELL (human), P55199) is on record?
A: Its binding is “binds”.

B2: endogenous ELL, P55199 1-621 (protein)
chain: T1 chain
Q: Which binding [1] does the source give for B2 here?
A: Its binding is “binds”.
